{"source": "PubChem BioAssay AID1259424 (University of Nebraska Medical Center, 2018)", "aim": "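Rank knockdowns across the genome by resemblance to the KSR1 depletion profile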 (primary screen)", "cells": "human HCT116 colon cancer cells", "reagent": "siRNA pool against human genes, 50 nM", "measured": "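Six signature mRNAs by branched-DNA multiplex assay, scaled to two housekeeping genes and non-targeting median, log2; matched to mean KSR1 knockdown profile by Pearson correlation and euclidean distance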", "scale": "mean correlation with KSR1 profile: higher = expression change more like KSR1 knockdown; mean distance from KSR1 profile: higher = expression change less like KSR1 knockdown", "note": "The whole screen tested about 14,000 reagents; this is an unselected part. 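Higher correlation or smaller distance means closer resemblance to KSR1 loss; control wells, including KSR1 knockdowns, recur on many plates.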 Reagents against one gene are numbered here. Further read-outs or replicates are left out here. Reagent sequences are not shown. The record does not give: the time to read-out."}
{"Target gene":"XAGE1B (GeneID 653067)","reagent no.":1,"mean correlation with KSR1 profile":0.155,"mean distance from KSR1 profile":1.81}
{"Target gene":"VPS35L (GeneID 57020)","reagent no.":1,"mean correlation with KSR1 profile":-0.689,"mean distance from KSR1 profile":2.55}
{"Target gene":"PIGH (GeneID 5283)","reagent no.":1,"mean correlation with KSR1 profile":-0.421,"mean distance from KSR1 profile":3.02}
{"Target gene":"MAGIX (GeneID 79917)","reagent no.":1,"mean correlation with KSR1 profile":0.468,"mean distance from KSR1 profile":1.67}
{"Target gene":"VEZF1 (GeneID 7716)","reagent no.":1,"mean correlation with KSR1 profile":-0.567,"mean distance from KSR1 profile":2.47}
{"Target gene":"ABCB7 (GeneID 22)","reagent no.":1,"mean correlation with KSR1 profile":-0.822,"mean distance from KSR1 profile":3.34}
{"Target gene":"APOL3 (GeneID 80833)","reagent no.":1,"mean correlation with KSR1 profile":-0.141,"mean distance from KSR1 profile":1.53}
{"Target gene":"PNPO (GeneID 55163)","reagent no.":1,"mean correlation with KSR1 profile":-0.795,"mean distance from KSR1 profile":1.89}
{"Target gene":"SPATA31A7 (GeneID 26165)","reagent no.":1,"mean correlation with KSR1 profile":-0.175,"mean distance from KSR1 profile":3.59}
{"Target gene":"SART3 (GeneID 9733)","reagent no.":1,"mean correlation with KSR1 profile":0.439,"mean distance from KSR1 profile":1.07}
{"Target gene":"SCRT1 (GeneID 83482)","reagent no.":1,"mean correlation with KSR1 profile":0.412,"mean distance from KSR1 profile":2.65}
{"Target gene":"SCRT1 (GeneID 83482)","reagent no.":2,"mean correlation with KSR1 profile":0.897,"mean distance from KSR1 profile":1.18}
{"Target gene":"NFE2 (GeneID 4778)","reagent no.":1,"mean correlation with KSR1 profile":-0.131,"mean distance from KSR1 profile":2.44}
{"Target gene":"ANP32D (GeneID 23519)","reagent no.":1,"mean correlation with KSR1 profile":-0.476,"mean distance from KSR1 profile":3.05}
{"Target gene":"RORA (GeneID 6095)","reagent no.":1,"mean correlation with KSR1 profile":-0.114,"mean distance from KSR1 profile":1.54}
{"Target gene":"DAPK1 (GeneID 1612)","reagent no.":1,"mean correlation with KSR1 profile":0.464,"mean distance from KSR1 profile":2.66}
{"Target gene":"OR2B2 (GeneID 81697)","reagent no.":1,"mean correlation with KSR1 profile":0.728,"mean distance from KSR1 profile":1.19}
{"Target gene":"TTPAL (GeneID 79183)","reagent no.":1,"mean correlation with KSR1 profile":0.236,"mean distance from KSR1 profile":2.56}
{"Target gene":"PIP4K2B (GeneID 8396)","reagent no.":1,"mean correlation with KSR1 profile":0.0565,"mean distance from KSR1 profile":2.69}
{"Target gene":"ZPR1 (GeneID 8882)","reagent no.":1,"mean correlation with KSR1 profile":-0.276,"mean distance from KSR1 profile":2.56}
{"Target gene":"TRMT1L (GeneID 81627)","reagent no.":1,"mean correlation with KSR1 profile":-0.429,"mean distance from KSR1 profile":2.39}
{"Target gene":"TRAPPC12 (GeneID 51112)","reagent no.":1,"mean correlation with KSR1 profile":0.248,"mean distance from KSR1 profile":2.74}
{"Target gene":"ATP5MC1 (GeneID 516)","reagent no.":1,"mean correlation with KSR1 profile":-0.382,"mean distance from KSR1 profile":2.56}
{"Target gene":"COG2 (GeneID 22796)","reagent no.":1,"mean correlation with KSR1 profile":0.376,"mean distance from KSR1 profile":2.01}
{"Target gene":"WDR24 (GeneID 84219)","reagent no.":1,"mean correlation with KSR1 profile":0.802,"mean distance from KSR1 profile":1.45}
{"Target gene":"SCN11A (GeneID 11280)","reagent no.":1,"mean correlation with KSR1 profile":-0.5,"mean distance from KSR1 profile":2.81}
{"Target gene":"FETUB (GeneID 26998)","reagent no.":1,"mean correlation with KSR1 profile":0.0234,"mean distance from KSR1 profile":1.36}
{"Target gene":"TEX101 (GeneID 83639)","reagent no.":1,"mean correlation with KSR1 profile":0.289,"mean distance from KSR1 profile":2.46}

Taken from above.
SCRT1 (GeneID 83482) #1, mean distance from KSR1 profile: 2.65
Entry for TRAPPC12 (GeneID 51112) under “mean distance from KSR1 profile”: 2.74
